Hit rate of the full screen: of about 320,000 compounds, about 22,000 (6.9%) were called active. The shares of active, inactive and inconclusive entries below differ from those in the screen. The call rests on the fitted dose curve; in most records, active means well fitted inhibition curve with a large enough effect; inconclusive means small, poorly fitted or top-dose-only effect, or another doubt; inactive means no such curve, though single readings can be large or run the other way. Potencies of inconclusive entries are doubtful fits and often do not repeat.
Test: Primary qHTS for delayed death inhibitors of the malarial parasite plastid, 96 hour incubation
Conditions: P. falciparum luciferase reporter growth; series mostly up to 28.7 µM; activity change, negative = inhibition: at the top concentration
How it was run: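 Plates of compound plus infected erythrocytes (2% hematocrit, 0.05% parasitemia final) incubate 96 hours, 37 C, 5% CO2. Detection reagent added; reduced luminescence from the parasites' luciferase reporter flags inhibition.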
On the % scale 0 is the no-effect control and ±100 the full control effect; potency means the concentration at half of the fitted maximal effect.

Row | Compound | Potency | activity change, negative = inhibition
1 | CCOc1ncccc1C(=O)N1CCN(Cc2ccc3c(c2)OCO3)CC1 | inconclusive: 13.1 µM [inhibitor, partial curve, poor fit] | –
2 | O=C(COc1ccccc1)Nc1nnc(S(=O)(=O)N2CCCC2)s1 | inconclusive: 4.65 µM [inhibitor, partial curve] | –
3 | COc1cc(CNCc2ccc(OC)c(OC)c2OC)cc(OC)c1 | – | inactive: 10.6%
4 | COc1nnc(-c2ccc(C)c(S(=O)(=O)NCCO)c2)c2ccccc12 | inconclusive: 10.4 µM [inhibitor, single point] | –
5 | CC(=O)c1cc(CN2CCN(Cc3ccc(C)cc3)C(CCO)C2)cs1 (centres undefined) | inconclusive: 18.5 µM [inhibitor, single point] | –
6 | Oc1ccc(Cl)cc1Cc1ccccc1 | active: 7.57 µM | –
7 | O=C(CN1C(=O)C2CCCCC2C1=O)Nc1cccc([N+](=O)[O-])c1 (centres undefined) | – | inactive: -27%
8 | Cc1ccc(-c2c(C)sc3nc[nH]c(=O)c23)cc1C | inconclusive: 18.5 µM [inhibitor, single point] | –
9 | O=S(=O)(c1ccccc1)c1nc(Cc2ccccc2)oc1N1CCOCC1 | inconclusive: 2.62 µM [inhibitor, full curve, poor fit] | –
10 | Cc1cccc(NC(=O)c2cc(=O)[nH]c3ccccc23)c1 | inconclusive: 5.22 µM [inhibitor, partial curve] | –
11 | COc1ccc(S(=O)(=O)NCCC(=O)OCc2cc(=O)oc3cc(C)ccc23)cc1[N+](=O)[O-] | inconclusive: 0.0657 µM [inhibitor, full curve, poor fit] | –
12 | Nc1nc2ccccc2n1/N=C/c1ccc2c(c1)OCO2 | – | inactive: -23.9%
13 | N#C/C(=C/c1ccc([N+](=O)[O-])cc1)C(=O)Nc1ccccc1O | – | inactive: -20%
14 | COc1ccc(NC(=S)N(Cc2ccccn2)Cc2ccccc2Cl)cc1 | inconclusive: 13.1 µM [inhibitor, single point] | –
15 | COc1cc(OC)cc(C(=O)NCCC(c2ccccc2)c2ccccc2)c1 | inconclusive: 11.7 µM [inhibitor, partial curve, poor fit] | –
16 | COc1ccc(-c2ccc(C#N)c(SCC(=O)Nc3sc4c(c3C#N)CCC4)n2)cc1OC | inconclusive: 1.17 µM [inhibitor, full curve, poor fit] | –
17 | COc1ccc(CCNC(=O)c2ccc(S(=O)(=O)N(C)c3ccccc3)cc2)cc1OC | inconclusive: 11.7 µM [inhibitor, single point] | –
18 | CCOC(=O)c1[nH]ncc1CN1CCCC(C(=O)c2cc(Cl)ccc2OC)C1 (centres undefined) | inconclusive: 18.5 µM [inhibitor, partial curve, poor fit] | –
19 | CN(CC(=O)NCc1cccnc1)S(=O)(=O)c1ccc(F)cc1 | inconclusive: 14.7 µM [inhibitor, partial curve, poor fit] | –
20 | CN1CCC(N(C)S(=O)(=O)c2ccc(NC(=O)Cc3ccc(F)cc3)cc2)CC1 | inconclusive: 9.28 µM [inhibitor, single point] | –
21 | CCCc1cc(=O)[nH]c(SCCc2ccccc2)n1 | active: 9.28 µM | –
22 | Cc1sc2ncn(-c3ccccc3)c(=O)c2c1C | – | inactive: -54.9%
23 | CC1(C)NC(=O)N(CC(O)COC2CCCCC2)C1=O (centres undefined) | inconclusive: 13.1 µM [inhibitor, single point] | –

Row | Compound | Potency | activity change, negative = inhibition
24 | COc1ccc(CC(=O)Nc2c(C(=O)N3CCN(c4ncccn4)CC3)oc3ccccc23)cc1OC | inconclusive: 8.28 µM [inhibitor, partial curve] | –
25 | CC1=CC(C)(C)Nc2ccc(C)cc21 | inconclusive: 4.15 µM [inhibitor, single point] | –
26 | Cc1ccnc(SC2CC(=O)N(c3ccc(F)cc3)C2=O)n1 (centres undefined) | – | inactive: -10.9%
27 | Cn1c(CN2CCN(C(=O)c3ccccc3)CC2)nc2cc([N+](=O)[O-])ccc21 | – | inactive: -3.25%
28 | Cc1nc2ccc([N+](=O)[O-])cc2c(=O)n1Cc1ccc(Cl)cc1 | inconclusive: 18.5 µM [inhibitor, single point] | –
29 | CC(NC(=O)CCNS(=O)(=O)c1cccc2nsnc12)c1ccccc1 (centres undefined) | active: 2.94 µM | –
30 | COc1ccc(CCn2c(-c3ccccc3)nc3c(c(=O)c4ccccc4n3C)c2=O)cc1 | inconclusive: 14.7 µM [inhibitor, single point] | –
31 | COc1ccccc1N1CCN(c2ccc(N3C(=O)CCC3=O)cc2[N+](=O)[O-])CC1 | inconclusive: 0.262 µM [inhibitor, full curve, poor fit] | –
32 | O=C(CN1C(=O)NC2(CCCCCCC2)C1=O)NC1CCCc2ccccc21 (centres undefined) | inconclusive: 18.5 µM [inhibitor, single point] | –
33 | O=C(Nc1nccs1)C1(c2ccc(Cl)cc2)CC1 | inconclusive: 6.57 µM [inhibitor, partial curve, poor fit] | –
34 | COc1cccc(C(=O)/C=C2\Sc3ccccc3N2C)c1 | – | inactive: 11.8%
35 | Cc1noc(C)c1CSc1nc2ccccc2c(=O)n1-c1ccccc1 | – | inactive: -21%
36 | O=C(N/N=C/c1ccco1)c1ccccc1OCc1ccc(Br)cc1 | active: 13.1 µM | –
37 | CCC(O)CC(C(=O)NNc1ccccc1)C(=O)NNc1ccccc1 (centres undefined) | inconclusive: 0.131 µM [inhibitor, partial curve, poor fit] | –
38 | Cc1ccc(SC/C(O)=C(\C#N)c2nc3ccccc3s2)cc1 | inconclusive: 11.7 µM [inhibitor, single point] | –
39 | Cc1sc2nc(CSC(C)C(=O)N(C)CC(=O)Nc3ccccc3C(F)(F)F)[nH]c(=O)c2c1C (centres undefined) | inconclusive: 11.7 µM [inhibitor, single point] | –
40 | CCOC(=O)c1c(-c2cccs2)csc1NC(=O)CN(CC)CC | inconclusive: 11.7 µM [inhibitor, single point] | –
41 | COc1ccc(CNC(=O)C(C)N(Cc2ccco2)C(=O)c2snc(C(N)=O)c2N)cc1 (centres undefined) | inconclusive: 0.415 µM [inhibitor, partial curve, poor fit] | –
42 | CC(=O)Oc1c(/C=C(\C#N)C(N)=O)[nH]c2ccccc12 | – | inactive: -14.8%
43 | CCC(=O)N/N=C/c1ccc(-c2ccc(Cl)cc2)o1 | inconclusive: 13.1 µM [inhibitor, single point] | –
44 | Cc1c(C(=S)Nc2ccccc2)cnn1-c1ccc([N+](=O)[O-])cc1 | inconclusive: 10.4 µM [inhibitor, single point] | –
45 | O=C(CCN1C(=O)C2C3C=CC(C3)C2C1=O)N1CCN(c2ccccn2)CC1 (centres undefined) | – | inactive: 32.1%
46 | CC(=O)Nc1ccc(S(=O)(=O)Nc2nc3cc4c(cc3nc2Cl)OCCO4)cc1 | – | inactive: 18.2%

Exported with tabs: entries from further up
Row	Compound	Potency	activity change, negative = inhibition
27	Cn1c(CN2CCN(C(=O)c3ccccc3)CC2)nc2cc([N+](=O)[O-])ccc21	–	inactive: -3.25%
28	Cc1nc2ccc([N+](=O)[O-])cc2c(=O)n1Cc1ccc(Cl)cc1	inconclusive: 18.5 µM [inhibitor, single point]	–
29	CC(NC(=O)CCNS(=O)(=O)c1cccc2nsnc12)c1ccccc1 (centres undefined)	active: 2.94 µM	–
30	COc1ccc(CCn2c(-c3ccccc3)nc3c(c(=O)c4ccccc4n3C)c2=O)cc1	inconclusive: 14.7 µM [inhibitor, single point]	–
31	COc1ccccc1N1CCN(c2ccc(N3C(=O)CCC3=O)cc2[N+](=O)[O-])CC1	inconclusive: 0.262 µM [inhibitor, full curve, poor fit]	–
32	O=C(CN1C(=O)NC2(CCCCCCC2)C1=O)NC1CCCc2ccccc21 (centres undefined)	inconclusive: 18.5 µM [inhibitor, single point]	–
33	O=C(Nc1nccs1)C1(c2ccc(Cl)cc2)CC1	inconclusive: 6.57 µM [inhibitor, partial curve, poor fit]	–
34	COc1cccc(C(=O)/C=C2\Sc3ccccc3N2C)c1	–	inactive: 11.8%
35	Cc1noc(C)c1CSc1nc2ccccc2c(=O)n1-c1ccccc1	–	inactive: -21%
36	O=C(N/N=C/c1ccco1)c1ccccc1OCc1ccc(Br)cc1	active: 13.1 µM	–
37	CCC(O)CC(C(=O)NNc1ccccc1)C(=O)NNc1ccccc1 (centres undefined)	inconclusive: 0.131 µM [inhibitor, partial curve, poor fit]	–
38	Cc1ccc(SC/C(O)=C(\C#N)c2nc3ccccc3s2)cc1	inconclusive: 11.7 µM [inhibitor, single point]	–
39	Cc1sc2nc(CSC(C)C(=O)N(C)CC(=O)Nc3ccccc3C(F)(F)F)[nH]c(=O)c2c1C (centres undefined)	inconclusive: 11.7 µM [inhibitor, single point]	–
40	CCOC(=O)c1c(-c2cccs2)csc1NC(=O)CN(CC)CC	inconclusive: 11.7 µM [inhibitor, single point]	–
41	COc1ccc(CNC(=O)C(C)N(Cc2ccco2)C(=O)c2snc(C(N)=O)c2N)cc1 (centres undefined)	inconclusive: 0.415 µM [inhibitor, partial curve, poor fit]	–
42	CC(=O)Oc1c(/C=C(\C#N)C(N)=O)[nH]c2ccccc12	–	inactive: -14.8%
43	CCC(=O)N/N=C/c1ccc(-c2ccc(Cl)cc2)o1	inconclusive: 13.1 µM [inhibitor, single point]	–
44	Cc1c(C(=S)Nc2ccccc2)cnn1-c1ccc([N+](=O)[O-])cc1	inconclusive: 10.4 µM [inhibitor, single point]	–
45	O=C(CCN1C(=O)C2C3C=CC(C3)C2C1=O)N1CCN(c2ccccn2)CC1 (centres undefined)	–	inactive: 32.1%
46	CC(=O)Nc1ccc(S(=O)(=O)Nc2nc3cc4c(cc3nc2Cl)OCCO4)cc1	–	inactive: 18.2%

(continued)

Row | Compound | Potency | activity change, negative = inhibition
47 | COc1ccccc1NS(=O)(=O)c1cccc(C(=O)N/N=C/c2c(CO)cnc(C)c2O)c1 | inconclusive: 18.5 µM [inhibitor, single point] | –
48 | CCNS(=O)(=O)c1ccc(OC)c(C(=O)NC2CCCCC2)c1 | – | inactive: 22.7%
49 | Cc1ccc(NC(=O)CSc2nc(O)cc(=O)n2-c2ccc(C)cc2)cc1 | inconclusive: 8.28 µM [inhibitor, partial curve] | –
50 | O=C(CSc1nc2cc(Cl)ccc2s1)Nc1cccc(S(=O)(=O)N2CCOCC2)c1 | inconclusive: 0.0033 µM [inhibitor, full curve, poor fit] | –
51 | COc1ccc(C(O)(CCN2CCOCC2)c2ccccc2)cc1 (centres undefined) | inconclusive: 0.0041 µM [inhibitor, full curve, poor fit] | –
52 | COc1ccc(NC(=O)COC(=O)/C=C/c2cccs2)c(OC)c1 | inconclusive: 0.131 µM [inhibitor, full curve, poor fit] | –
53 | CCN(CC#CCC(O)(c1ccccc1)C1CCCC1)C(C)C (centres undefined) | inconclusive: 10.4 µM [inhibitor, partial curve, poor fit] | –
54 | CCc1ccccc1S(=O)(=O)Cc1ccc(C(=O)N2CCN(c3ccccn3)CC2)o1 | active: 9.28 µM | –
55 | CC1Cc2cc(S(=O)(=O)NCc3ccccc3)ccc2N1C(=O)C1CC1 (centres undefined) | inconclusive: 8.28 µM [inhibitor, partial curve, poor fit] | –
56 | O=C(/C=C/c1cn(CC(O)CN2CCCCC2)c2ccccc12)c1cccs1 (centres undefined) | inconclusive: 13.1 µM [inhibitor, single point] | –
57 | O=C(c1ccccc1Br)N1CCN(c2ccc([N+](=O)[O-])c(N3CCOCC3)c2)CC1 | inconclusive: 14.7 µM [inhibitor, partial curve, poor fit] | –
58 | CN(C)c1ccc(N2C(=O)CSC2=S)cc1 | active: 5.22 µM | –
59 | COc1cccc(C2=CC(c3cccc(OC)c3OC)n3nnnc3N2)c1 (centres undefined) | inconclusive: 18.5 µM [inhibitor, single point] | –
60 | COc1ccc(C(=O)c2oc3ccc(OC)cc3c2N)cc1 | inconclusive: 18.5 µM [inhibitor, single point] | –
61 | Cn1c(=O)c2c(nc(N3CCCCC3)n2CCSc2nc3ccccc3s2)n(C)c1=O | – | inactive: 4.97%
62 | CC12CCC(=O)N1C(C(=O)NCCN1C(=O)S/C(=C\c3ccccc3F)C1=O)CS2 (centres undefined) | inconclusive: 18.5 µM [inhibitor, single point] | –
63 | CCn1c(SCC(=O)N2CCN(c3ccccc3F)CC2)nnc1-c1ccoc1C | – | inactive: 18.7%
64 | Cc1cccc(NC(=O)CSCC(=O)Nc2nnc(C3CC3)s2)c1 | – | inactive: -13.4%
65 | O=C(CN1C(=O)/C(=C\c2cccc(F)c2)Oc2ccccc21)N1CCN(c2ccccn2)CC1 | inconclusive: 13.1 µM [inhibitor, single point] | –
66 | COc1ccc(/C=C2\CCOC2=O)cc1 | inactive | –
67 | COc1ccc(NC(=S)Nc2ccccc2)cn1 | – | inactive: 15.3%
68 | CNc1c(NS(=O)(=O)c2ccc(OC)cc2)c(=O)oc2ccccc12 | inconclusive: 0.738 µM [inhibitor, full curve, poor fit] | –
69 | C/C=C/C(=O)N1CC2(CC(c3cccc(NC(=O)CC)c3)=NO2)C[C@H]1C(N)=O (some centres undefined) | inconclusive: 13.1 µM [inhibitor, single point] | –
